Results reported in patent publication US20200199207A1.
These are yes or no findings as the source states them, for the method shown. Some results given as binding are weak or reduced against the parent protein; the word gives no strength.

Experiments:
Assay in all cases: ELISA, antigen-coated plate (FIG. 3)
nAra h 6 (peanut) = target: T1, nAra h 6 (peanut) (UniProt Q647G9)
T1 sequence (looked up): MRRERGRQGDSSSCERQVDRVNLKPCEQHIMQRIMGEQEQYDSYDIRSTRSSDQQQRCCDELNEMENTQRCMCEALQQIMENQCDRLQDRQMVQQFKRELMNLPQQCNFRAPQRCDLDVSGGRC

rAra h 2 (peanut) = target: T2, rAra h 2 (peanut) (UniProt Q6PSU2)
T2 sequence (looked up): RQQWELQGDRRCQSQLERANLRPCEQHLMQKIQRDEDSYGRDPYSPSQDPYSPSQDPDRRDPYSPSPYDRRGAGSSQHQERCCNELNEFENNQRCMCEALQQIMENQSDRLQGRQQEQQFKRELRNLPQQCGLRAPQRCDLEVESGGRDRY

nAra h 1 (peanut) = target: T3, nAra h 1 (peanut) (UniProt P43238)
T3 sequence (looked up): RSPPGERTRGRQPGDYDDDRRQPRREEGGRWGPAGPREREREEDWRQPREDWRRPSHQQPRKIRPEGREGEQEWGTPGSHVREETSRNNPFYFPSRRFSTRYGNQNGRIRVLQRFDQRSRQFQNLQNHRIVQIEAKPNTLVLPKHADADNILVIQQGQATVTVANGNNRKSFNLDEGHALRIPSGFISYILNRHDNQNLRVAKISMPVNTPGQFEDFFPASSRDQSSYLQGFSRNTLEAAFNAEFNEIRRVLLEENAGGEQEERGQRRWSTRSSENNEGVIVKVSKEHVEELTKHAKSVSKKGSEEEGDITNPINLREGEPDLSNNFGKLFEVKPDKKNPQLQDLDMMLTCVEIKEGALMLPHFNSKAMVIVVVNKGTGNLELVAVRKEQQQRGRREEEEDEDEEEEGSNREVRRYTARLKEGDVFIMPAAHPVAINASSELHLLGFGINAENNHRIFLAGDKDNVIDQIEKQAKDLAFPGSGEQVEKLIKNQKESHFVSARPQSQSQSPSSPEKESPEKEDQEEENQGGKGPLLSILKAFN

nAra h 2 (peanut) = target: T4, nAra h 2 (peanut) (UniProt Q6PSU2)
T4 sequence (looked up): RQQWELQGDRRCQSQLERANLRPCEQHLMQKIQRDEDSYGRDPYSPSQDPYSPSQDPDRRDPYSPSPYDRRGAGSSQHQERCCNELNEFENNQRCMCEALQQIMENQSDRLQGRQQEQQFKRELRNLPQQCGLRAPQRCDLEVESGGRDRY

Measured: binding

B1: h32B10 (antibody, V domains shown)
VH: QVQLVQSGAEVKKPGASVKVSCRASGYIFRNFDINWVRQATGQGLEWMGWMSPKSGDTGYAQKFQGRVTMTRDTSINTAYMELSSLTSEDSAVYYCARGVDGTNWGQGTRVTVSS
VL: DIVMTQSPDSLGVSLGERATISCKSSQSILDNSNNKNFIAWFQQKPGQPPKLLIYWASARESGVPDRFSGSGSGTEFTLTINSLQAEDVAVYYCYQYYSTPHTFGQGTKLDLR
binds: all assays above

B2: h37D5 (antibody, V domains shown)
VH: EEQLVESGGRLLRPGESLSLSCAAVGFNFGDFGMAWVRQPPGKGLEWVAGINWSGHSTGFVDSMKGRLTISRDSAKSSLFLQMNSLRGEDTAVYYCARVGRLCSGDICDSMGAFDLWGQGTMVTVSS
VL: DIQMTQSPSTLSASIGDRVTITCRASQTIDNWLAWYQQRPGKAPKLLIYQASSLQSGVSSRFRGSGSGTEFTLTITSLQPDDFATYYCQKSNGYSRTFGQGTKVEIK
binds: all assays above

B3: h12G10 (antibody, human IgG1, V domains shown)
VH: EVQLLESGGRLLRPGGSLSLSCVASGFYFGDFGMSWVRQVPGKGLEWVSGIDWSGRSTGYVDSMKGRLTISRDNDKSSLYLQMNDLRGEDTAVYYCARVGRLCSGDSCDSMGAFDLWGQGTMVTVSS
VL: DIQLTQSPSTLSASIGDSVTITCRASQNIDNWLAWYQQKPGKAPRLLIYKASSLGSGVSSKFRGSGFGTEFTLTITSLQPDDFATYYCQKSNGYSRTFGQGTKVDIK
binds: all assays above

B4: h4B2 (antibody, V domains shown)
VH: QVQLQEAGPRLVKPSQTLSVTCTVSGASITIGGYYWSWIRQHPGKGLEWMGYIYSNGRTYYNPSLKSRIAMSIDTSKNQFSLKLTSVTAADTAIYFCAREAWETPLWGQGTLITVSS
VL: DIQMTQSPSSLSASVGDRVTITCQANQDIVNSLNWFQHKPGTAPKVLIYDASKLETGVPSRFSGSGSGTHFTFTISGLQPEDFATYFCQQYENLPHTFGQGTKLEIR
binds: all assays above

B5: h2F8 (antibody, V domains shown)
VH: EVQLVESGGGLVKPGGSLRLSCAASGFIFSDYNMNWVRQAPGKGLEWVSSITRSSRTIYYADSVKGRFTISRDNAKNSLHLQMNSLRDADTAVYYCAREDFDVSTGPYYMDVWGNGTTVIVSS
VL: EIVLTQSPGTLSLSPGERATLSCRASQSVSNMFLVWYQQKPGQAPRLLMYGASTRATDIPDRFSGSGSGTDFTLTISRLEPEDFAVYYCQQNGNSPYTFGQGTKLEIK
binds: all assays above

B6: h7G6 (antibody, V domains shown)
VH: QVQLVESGGGVVQPGRSLRLSCAASGIAFNDYTMHWVRRSPDKGLEWVAAISYGGTNKYYADSVKGRFTISRDSSKNTLFLQMDSLRVEDTAVYYCARDSGYRSLLHWGQGTLVTVSS
VL: EIVLTQSPLSLPVTPGEPASISCRSSQSLVHRNGYNYLDWYLQKPGQSPQLLIYMASKRASGVPDRFSGSGSGTEFTLKISRVEAEDVGIYYCMQALQTWTFGQGTKVEVN
binds: all assays above
